From US20250332170A1, “VANDETANIB REDUCES INFLAMMATORY CYTOKINES AND AMELIORATES COVID-19” (Collaborations Pharmaceuticals, Inc., priority 2021, published 2025)

Tested on: murine hepatitis virus (MHV)
Test: microbe, parasite or virus in culture
Type: cell-based
Settings: Murine coronavirus, read-out: % Inhibition MHV-DBT cells 10 μM

`CNC(=O)c1ccccc1Sc1ccc2c(/C=C/c3ccccn3)n[nH]c2c1` [Axitinib] was tested, and the inhibition at 10 µM was 35%.
